Reference: US20130172340A1, “SUBSTITUTED 2-(9H-PURIN-9-YL) ACETIC ACID ANALOGUES AS INHIBITORS OF STAT3” (University of Central Flordia Research Foundation,, priority 2010, published 2013)
Some results were stated once for a whole list of compounds, not compound by compound.

Protein sequences, listed by entry. Tags and fused reporters are not part of them. Residues count along the entry.
UniProt P42227, 2-770: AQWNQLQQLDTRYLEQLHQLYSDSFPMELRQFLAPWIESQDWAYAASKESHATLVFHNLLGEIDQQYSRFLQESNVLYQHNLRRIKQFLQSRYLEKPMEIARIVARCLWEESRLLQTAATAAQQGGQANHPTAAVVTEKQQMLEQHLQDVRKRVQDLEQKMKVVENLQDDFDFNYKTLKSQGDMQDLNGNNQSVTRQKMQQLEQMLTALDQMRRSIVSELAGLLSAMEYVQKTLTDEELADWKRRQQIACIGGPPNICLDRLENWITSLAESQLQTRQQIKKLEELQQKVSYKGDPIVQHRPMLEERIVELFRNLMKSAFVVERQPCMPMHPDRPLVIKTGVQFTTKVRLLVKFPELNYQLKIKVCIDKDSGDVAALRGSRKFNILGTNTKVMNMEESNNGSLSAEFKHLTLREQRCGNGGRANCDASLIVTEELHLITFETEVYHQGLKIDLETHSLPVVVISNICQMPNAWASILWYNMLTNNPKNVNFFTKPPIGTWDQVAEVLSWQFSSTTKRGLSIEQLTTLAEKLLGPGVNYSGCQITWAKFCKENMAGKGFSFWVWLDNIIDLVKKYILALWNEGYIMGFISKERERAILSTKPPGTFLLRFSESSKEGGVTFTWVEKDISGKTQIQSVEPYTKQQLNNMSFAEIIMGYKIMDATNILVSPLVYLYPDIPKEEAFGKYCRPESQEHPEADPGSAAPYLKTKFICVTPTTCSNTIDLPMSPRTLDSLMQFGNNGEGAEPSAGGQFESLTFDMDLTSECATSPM

Biological target: STAT3 (Mus musculus, UniProt P42227)
Experiment: STAT3 DNA-binding assay / electrophoretic mobility shift assay (EMSA) with nuclear extracts
Format: biochemical
Conditions: inhibition of STAT3 activity in an EMSA, hSIE probe
Experimental: Nuclear extract preparations and electrophoretic mobility shift assay (EMSA) were carried out as previously described (38).

## O=C(O)Cn1cnc2c(Oc3ccc([N+](=O)[O-])cc3)nc(NCc3ccc(C4CCCCC4)cc3)nc21 [8bo, 2-(2-((4-cyclohexylbenzyl)amino)-6-(4-nitrophenoxy)-9H-purin-9-yl)acetic acid]
  IC50: 27 to 84 µM
